# The supplement of paper PMC4635364
# Counter-ions that a name gives are not always drawn. The list shows a part of the results. Single values are uncertain here, since repeats match poorly.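 Human fetal ventral-midbrain neural progenitor line ReNCell VM, differentiated without mitogens. Images stained for doublecortin (early neurons) or tyrosine hydroxylase (dopaminergic neurons) were scored by blinded raters against untreated wells (0 = no change). Repeats and both raters were averaged, and compounds averaging 2 or higher were picked as hits for retesting.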 Where a SMILES comes first, the peptide text is derived from it.
# How the values were obtained:
# [1] = system: ReNCell VM; assay: neuronal differentiation score (DCX+ cell fraction vs untreated, manual image score) (score (-3 to 3)); higher = more neuronal differentiation; settings: 2 uM, 2 weeks
# [2] = system: ReNCell VM; assay: dopaminergic neuron differentiation score (TH+ cell fraction vs untreated, manual image score) (score (0 to 3)); higher = more TH+ dopaminergic neuron differentiation; settings: 2 uM, 4 weeks, BDNF 10 ng/ml + GDNF 10 ng/ml
smiles,measurement,setting,value
COc1ccc2[nH]c([S@@+]([O-])Cc3ncc(C)c(OC)c3C)nc2c1,neuronal differentiation score,[1]; library: Spectrum,inactive: 1
same,dopaminergic neuron differentiation score,[2]; library: Spectrum,inactive: 0
CN1CCN2c3ncccc3Cc3ccccc3C2C1 (stereo not given) [Mirtazepine],neuronal differentiation score,[1]; library: Tocriscreen,inactive: 0
same,dopaminergic neuron differentiation score,[2]; library: Tocriscreen,inactive: 0
Nc1ccn([C@@H]2CS[C@H](CO)O2)c(=O)n1,neuronal differentiation score,[1]; library: Spectrum,inactive: 0
same,dopaminergic neuron differentiation score,[2]; library: Spectrum,inactive: 0
CC(=O)[C@H]1CC[C@H]2[C@@H]3C=CC4=CC(=O)CC[C@@]4(C)[C@@H]3CC[C@]12C [Dydrogesterone],neuronal differentiation score,[1]; library: Prestwick,inactive: 0
same,dopaminergic neuron differentiation score,[2]; library: Prestwick,inactive: 0
C[C@H](CCC(=O)O)[C@H]1CC[C@H]2[C@@H]3CC[C@@H]4C[C@H](O)CC[C@]4(C)[C@H]3CC[C@]12C,neuronal differentiation score,[1]; library: Spectrum,inactive: 0
same,dopaminergic neuron differentiation score,[2]; library: Spectrum,inactive: 0
C[C@H](NC(=O)c1sccc1OCc1ccc(Cl)cc1)c1ccccc1,neuronal differentiation score,[1]; library: Tocriscreen,inactive: 0
same,dopaminergic neuron differentiation score,[2]; library: Tocriscreen,inactive: 0
COC(=O)[C@H](Cc1ccccc1)NC(=O)[C@@H](N)CC(=O)O (H-Asp-Phe-OMe),neuronal differentiation score,[1]; library: Spectrum,inactive: 0
same,dopaminergic neuron differentiation score,[2]; library: Spectrum,inactive: 0
CCC(NC(C)C)C(O)c1ccc(O)c2[nH]c(=O)ccc12 (stereo not given) [Procaterol hydrochloride],neuronal differentiation score,[1]; library: Tocriscreen,inactive: 0
same,dopaminergic neuron differentiation score,[2]; library: Tocriscreen,inactive: 0
C=CCc1ccc(O)c(-c2ccc(O)c(CC=C)c2)c1 [honokiol],neuronal differentiation score,[1]; library: Natural,inactive: 0
same,dopaminergic neuron differentiation score,[2]; library: Natural,inactive: 0
O=C(O)C1CC([C@@H]2CCCCN2)CN2CCCCC12 (stereo not given in full),neuronal differentiation score,[1]; library: Spectrum,inactive: 0
same,dopaminergic neuron differentiation score,[2]; library: Spectrum,inactive: 0
CC(=O)c1cc2ccccc2oc1=O,neuronal differentiation score,[1]; library: Spectrum,inactive: 0
same,dopaminergic neuron differentiation score,[2]; library: Spectrum,inactive: 0
"O=c1cc(-c2ccccc2)[nH]c2nc(Cl)ccc12 [7-Chloro-4-hydroxy-2-phenyl-1,8-naphthyridine]",neuronal differentiation score,[1]; library: LOPAC,inactive: 0
same,dopaminergic neuron differentiation score,[2]; library: LOPAC,inactive: 0
CC1=C(/C=C/C(C)=C/C=C/C(C)=C/C=C/C=C(C)/C=C/C=C(C)/C=C/C2=C(C)C(=O)[C@@H](O)CC2(C)C)C(C)(C)C[C@H](O)C1=O [Astaxanthin],neuronal differentiation score,[1]; library: LOPAC,inactive: 0
same,dopaminergic neuron differentiation score,[2]; library: LOPAC,inactive: 0
COc1cc(OC)cc(OC)c1,neuronal differentiation score,[1]; library: Spectrum,inactive: 0
same,dopaminergic neuron differentiation score,[2]; library: Spectrum,inactive: 0
C=CCNC(N)=S,neuronal differentiation score,[1]; library: Spectrum,inactive: 0
same,dopaminergic neuron differentiation score,[2]; library: Spectrum,inactive: 0
COc1ccccc1OCC(O)COC(N)=O (stereo not given) [Methocarbamol],neuronal differentiation score,[1]; library: Prestwick,inactive: 0
same,dopaminergic neuron differentiation score,[2]; library: Prestwick,inactive: 0
C[C@]12CC[C@@H]3c4ccc(O)cc4CC[C@H]3[C@@H]1CCC2=O,neuronal differentiation score,[1]; library: Spectrum,inactive: 0
same,dopaminergic neuron differentiation score,[2]; library: Spectrum,inactive: 0
CC[C@@H](CO)NCCN[C@@H](CC)CO,neuronal differentiation score,[1]; library: Spectrum,inactive: 0
same,dopaminergic neuron differentiation score,[2]; library: Spectrum,inactive: 0
CN1CCC(OC(c2ccccc2)c2ccccc2)CC1 [Diphenylpyraline hydrochloride],neuronal differentiation score,[1]; library: Prestwick,inactive: 0
same,dopaminergic neuron differentiation score,[2]; library: Prestwick,inactive: 0
CCCCCCCCCCC(C)(C)C(=O)Nc1c(OC)cc(OC)cc1OC,neuronal differentiation score,[1]; library: Tocriscreen,inactive: 0
same,dopaminergic neuron differentiation score,[2]; library: Tocriscreen,inactive: 0
CCOC(=O)C1=C[C@@H](OC(CC)CC)[C@H](NC(C)=O)[C@@H](N)C1,neuronal differentiation score,[1]; library: Spectrum,inactive: 0
same,dopaminergic neuron differentiation score,[2]; library: Spectrum,inactive: 0
C[n+]1cccc(C(=O)[O-])c1 [Trigonelline hydrochloride],neuronal differentiation score,[1]; library: Phytochemical,inactive: 0
same,dopaminergic neuron differentiation score,[2]; library: Phytochemical,inactive: 0
CC(=O)O[C@@H]1C[C@H]2C(C)(C)C(=O)C=C[C@]2(C)[C@H]2CC[C@@]3(C)[C@H](c4ccoc4)OC(=O)[C@H]4O[C@]43[C@@]21C [Gedunin],neuronal differentiation score,[1]; library: Tocriscreen,inactive: 0
same,dopaminergic neuron differentiation score,[2]; library: Tocriscreen,inactive: 0
NC(Cc1ccc(Cl)cc1)C(=O)O (stereo not given),neuronal differentiation score,[1]; library: Spectrum,inactive: 0
same,dopaminergic neuron differentiation score,[2]; library: Spectrum,inactive: 0
Cc1c(C)c2c(c(C)c1O)CCC(C)(C(=O)O)O2 (stereo not given),neuronal differentiation score,[1]; library: Spectrum,inactive: 0
same,dopaminergic neuron differentiation score,[2]; library: Spectrum,inactive: 0
CCN(CC)CCOC(=O)c1ccc(N)cc1,neuronal differentiation score,[1]; library: Spectrum,inactive: 1
same,dopaminergic neuron differentiation score,[2]; library: Spectrum,inactive: 0
CN(C)[C@@H]1C(O)=C(C(N)=O)C(=O)[C@@]2(O)C(O)=C3C(=O)c4c(O)cccc4[C@@](C)(O)[C@H]3C[C@@H]12 [Tetracycline hydrochloride],neuronal differentiation score,[1]; library: Prestwick,inactive: 1
same,dopaminergic neuron differentiation score,[2]; library: Prestwick,inactive: 0
Cc1cnc(NC(=O)C2=C(O)c3ccccc3S(=O)(=O)N2C)s1 [Meloxicam sodium],neuronal differentiation score,[1]; library: LOPAC,inactive: 0
same,dopaminergic neuron differentiation score,[2]; library: LOPAC,inactive: 0
COc1cc(/C=C/C(=O)CC(=O)/C=C/c2ccc(O)c(OC)c2)ccc1O [curcumin],neuronal differentiation score,[1]; library: Natural,inactive: 0
same,dopaminergic neuron differentiation score,[2]; library: Natural,inactive: 0
CN[C@@H]1[C@@H](O[C@H]2O[C@H](CO)[C@@H](N)[C@H](O)[C@H]2O)OC2C[C@@H](N)[C@@H](O[C@H]3[C@H](O)[C@@H](O)[C@H](N)C[C@@H]3N)OC2[C@@H]1O (stereo not given in full) [Apramycin],neuronal differentiation score,[1]; library: Prestwick,inactive: 0
same,dopaminergic neuron differentiation score,[2]; library: Prestwick,inactive: 0
Nc1c(Br)cc(Br)cc1CN[C@H]1CC[C@H](O)CC1,neuronal differentiation score,[1]; library: Spectrum,inactive: 0
same,dopaminergic neuron differentiation score,[2]; library: Spectrum,inactive: 0
COC(=O)Nc1nc2cc([S+]([O-])c3ccccc3)ccc2[nH]1 (stereo not given),neuronal differentiation score,[1]; library: Spectrum,inactive: 1
same,dopaminergic neuron differentiation score,[2]; library: Spectrum,inactive: 0
CCN(CCO)CCCC(C)Nc1ccnc2cc(Cl)ccc12 (stereo not given) [Hydroxychloroquine sulfate],neuronal differentiation score,[1]; library: Prestwick,inactive: 0
same,dopaminergic neuron differentiation score,[2]; library: Prestwick,inactive: 0
Nc1cc(N2CCCCC2)nc(N)[n+]1[O-],neuronal differentiation score,[1]; library: Spectrum,inactive: 0
same,dopaminergic neuron differentiation score,[2]; library: Spectrum,inactive: 0
CCC(=O)OCC(=O)[C@@]1(OC(=O)CC)[C@H](C)C[C@H]2[C@H]3[C@H]([C@@H](O)C[C@@]21C)[C@@]1(C)C=CC(=O)C=C1C[C@H]3Cl [Alclometasone dipropionate],neuronal differentiation score,[1]; library: Prestwick,inactive: 0
same,dopaminergic neuron differentiation score,[2]; library: Prestwick,inactive: 0

# Laid out differently: results already given
smiles | measurement | setting | value
COc1cc(/C=C/C(=O)CC(=O)/C=C/c2ccc(O)c(OC)c2)ccc1O [curcumin] | dopaminergic neuron differentiation score | [2]; library: Natural | inactive: 0
CN[C@@H]1[C@@H](O[C@H]2O[C@H](CO)[C@@H](N)[C@H](O)[C@H]2O)OC2C[C@@H](N)[C@@H](O[C@H]3[C@H](O)[C@@H](O)[C@H](N)C[C@@H]3N)OC2[C@@H]1O (stereo not given in full) [Apramycin] | neuronal differentiation score | [1]; library: Prestwick | inactive: 0
same | dopaminergic neuron differentiation score | [2]; library: Prestwick | inactive: 0
